The data set concerns LNCaP cells.

Turning to `CN(C)CCOC(c1ccccc1)c1ccccc1.Cn1c(=O)c2[nH]c(Cl)nc2n(C)c1=O` [dimenhydrinate, reference compound], the “viability screen: viability (% [ATP] normalized to R1881-treated control)” value was 102.9%.

For the origin of these results see US20110263693A1, “CELASTROL, GEDUNIN, AND DERIVATIVES THEREOF AS HSP90 INHIBITORS” (DANA-FARBER CANCER INSTITUTE, INC., priority 2006, published 2011).
